The record followed here is article PMC8956710.

Amino acid sequences for entries named in this document (tags omitted).
UniProt O95863: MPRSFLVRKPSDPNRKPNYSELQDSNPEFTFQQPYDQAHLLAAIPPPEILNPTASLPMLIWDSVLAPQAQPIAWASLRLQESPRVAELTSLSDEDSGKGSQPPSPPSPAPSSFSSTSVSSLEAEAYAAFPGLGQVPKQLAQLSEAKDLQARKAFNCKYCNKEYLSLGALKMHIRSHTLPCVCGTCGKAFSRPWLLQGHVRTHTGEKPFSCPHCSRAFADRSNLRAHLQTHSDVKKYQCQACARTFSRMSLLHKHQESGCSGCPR

The target in experiment [1] is T1, Myc-FBXO31 (UniProt Q5XUX0).
T1 sequence: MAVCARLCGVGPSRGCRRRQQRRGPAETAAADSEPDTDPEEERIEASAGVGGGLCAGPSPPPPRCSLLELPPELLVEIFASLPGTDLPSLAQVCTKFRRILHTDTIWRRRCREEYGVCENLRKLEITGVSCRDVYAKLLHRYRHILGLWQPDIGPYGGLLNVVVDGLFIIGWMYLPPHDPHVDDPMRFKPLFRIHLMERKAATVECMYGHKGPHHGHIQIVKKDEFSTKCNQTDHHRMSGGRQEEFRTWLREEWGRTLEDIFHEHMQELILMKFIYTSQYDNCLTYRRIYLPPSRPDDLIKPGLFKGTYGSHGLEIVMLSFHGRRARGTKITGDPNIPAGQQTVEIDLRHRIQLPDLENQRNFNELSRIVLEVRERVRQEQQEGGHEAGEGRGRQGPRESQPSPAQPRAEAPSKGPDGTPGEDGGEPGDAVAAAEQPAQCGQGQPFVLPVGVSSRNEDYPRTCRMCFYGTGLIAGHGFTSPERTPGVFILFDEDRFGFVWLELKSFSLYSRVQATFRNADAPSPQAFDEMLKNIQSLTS
The experiment in a line: co-IP; SGC-7901 cells co-transfected with expression vectors for 48 h, lysed with IP lysis buffer; about 1 mg total protein with 5 µg anti-Flag or anti-Myc antibody or IgG overnight at 4 °C, Protein A/G PLUS agarose beads, western blot. (A western blot detects proteins with antibodies after separation by electrophoresis.)

Experiment [2] deals with T1, Myc-FBXO31. The experiment is described as above. This is another data set of the same source.
The target in experiment [3] is T2, FBXO31 (endogenous) (human (endogenous in 293T)) (UniProt Q5XUX0).
T2 sequence: T1 sequence
The experiment in a line: co-IP; endogenous proteins in 293T cells lysed with IP lysis buffer; 5 µg antibody against FBXO31 or STYX or IgG, Protein A/G PLUS agarose beads, western blot.

For experiment [4], the target named is T3, Flag-STYX (serine/threonine/tyrosine interacting protein) (UniProt Q8WUJ0).
T3 sequence: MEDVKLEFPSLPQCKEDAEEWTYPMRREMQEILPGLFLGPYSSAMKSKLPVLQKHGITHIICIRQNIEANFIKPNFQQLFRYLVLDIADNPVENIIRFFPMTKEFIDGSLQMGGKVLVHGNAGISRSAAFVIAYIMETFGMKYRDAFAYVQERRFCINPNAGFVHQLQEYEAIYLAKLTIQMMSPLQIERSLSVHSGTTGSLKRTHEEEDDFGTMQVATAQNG
The experiment in a line: co-IP; SGC-7901 cells co-transfected with expression vectors for 48 h, lysed with IP lysis buffer; about 1 mg total protein with 5 µg anti-Flag or anti-Myc antibody or IgG overnight at 4 °C, Protein A/G PLUS agarose beads, western blot.

Where two headings read alike, the source gives them in different places. No constants are given. Whether binding was seen depends on the method and setting. In cells and extracts the contact can be indirect. Some binding calls cover weakened binding; strength is not graded here. For some of these results: Where a sequence is shown, tags or fusion partners need not be part of it.

For Snail1 (from UniProt O95863 1-264), in the experiment with Myc-FBXO31 [1], the binding result is “binds”.

B1: Flag-STYX (serine/threonine/tyrosine interacting protein) (protein, UniProt Q8WUJ0 1-223)
chain: T3 sequence
In the case of B1, the binding result in the experiment with Myc-FBXO31 [2] is given as “binds”.

B2: STYX (endogenous) (protein, UniProt Q8WUJ0 1-223)
chain: T3 sequence
Consider B2, for which the binding result in experiment [3] is listed as “binds”.

B3: Myc-FBXO31 (protein, UniProt Q5XUX0 1-539)
chain: T1 sequence
Regarding B3, the binding result in experiment [4] is “binds”.
